The source of these data is article PMC12448893.

Chains of the proteins cited; added tags and fusions are not shown. Lines headed by an entry give the natural chain unless they say otherwise; changes in a name come on top.
UniProt Q13547: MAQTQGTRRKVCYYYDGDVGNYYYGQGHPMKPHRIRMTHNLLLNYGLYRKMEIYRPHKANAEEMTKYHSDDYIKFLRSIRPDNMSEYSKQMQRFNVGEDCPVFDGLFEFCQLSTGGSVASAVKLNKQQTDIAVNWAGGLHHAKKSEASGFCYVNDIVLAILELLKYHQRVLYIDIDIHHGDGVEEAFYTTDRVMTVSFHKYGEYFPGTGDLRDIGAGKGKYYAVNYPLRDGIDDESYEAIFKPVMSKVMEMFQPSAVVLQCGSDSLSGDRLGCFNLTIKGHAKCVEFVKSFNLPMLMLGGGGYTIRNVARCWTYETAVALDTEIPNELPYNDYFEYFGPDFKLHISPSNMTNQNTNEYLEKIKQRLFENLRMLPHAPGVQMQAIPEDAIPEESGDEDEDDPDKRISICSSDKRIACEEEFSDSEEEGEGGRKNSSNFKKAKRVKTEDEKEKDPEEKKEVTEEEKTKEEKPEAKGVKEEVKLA
UniProt Q8K4B0: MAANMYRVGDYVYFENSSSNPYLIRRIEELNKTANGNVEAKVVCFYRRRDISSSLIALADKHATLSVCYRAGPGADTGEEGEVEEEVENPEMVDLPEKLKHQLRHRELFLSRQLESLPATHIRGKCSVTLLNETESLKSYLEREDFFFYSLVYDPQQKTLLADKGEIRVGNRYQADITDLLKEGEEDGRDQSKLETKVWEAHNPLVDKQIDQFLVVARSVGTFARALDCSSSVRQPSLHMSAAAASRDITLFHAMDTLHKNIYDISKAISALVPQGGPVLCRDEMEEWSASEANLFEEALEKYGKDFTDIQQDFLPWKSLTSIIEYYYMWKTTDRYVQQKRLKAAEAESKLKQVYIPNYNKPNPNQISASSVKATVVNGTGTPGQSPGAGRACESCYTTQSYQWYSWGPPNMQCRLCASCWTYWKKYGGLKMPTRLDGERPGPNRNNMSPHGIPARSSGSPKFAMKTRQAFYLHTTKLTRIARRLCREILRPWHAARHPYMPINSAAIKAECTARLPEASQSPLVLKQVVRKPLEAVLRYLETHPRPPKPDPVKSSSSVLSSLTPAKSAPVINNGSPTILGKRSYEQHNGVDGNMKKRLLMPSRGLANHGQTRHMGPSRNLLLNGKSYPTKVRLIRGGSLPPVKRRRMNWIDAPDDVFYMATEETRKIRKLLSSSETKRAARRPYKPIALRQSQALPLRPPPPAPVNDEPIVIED

No constants are given. Whether binding was seen depends on the method and setting. Binding seen in cells or lysates may run through a third protein. Some results given as binding are weak or reduced against the parent protein; the word gives no strength.

What all share (assay): co-IP; Flag IP of HDAC1-Flag WT, Y48E or E63R from extracts of Hdac1/2 DKO mouse ESCs 5 days after OHT; coIP buffer 250 mM NaCl, 20 mM Tris-HCl pH 7.5, 0.5% IGEPAL, 1 mM EDTA; 4°C overnight; western blotting of endogenous partners; n = 4
Test [1] has as its target HDAC1-Flag (wild type), stably expressed in Hdac1/2 double knockout mouse ESCs (UniProt Q13547).
For test [2], the target named is HDAC1–Y48E (Flag), stably expressed in Hdac1/2 double knockout mouse ESCs (UniProt Q13547).
In test [3] the target is HDAC1–E63R (Flag), stably expressed in Hdac1/2 double knockout mouse ESCs (UniProt Q13547).

Regarding “MTA1 (endogenous, mouse ESCs) (from UniProt Q8K4B0 1-715)”, the binding result in test [1] was “binds”; in test [2] it was “no binding”.

B1: DNTTIP1 (endogenous, mouse ESCs) (protein, UniProt Q99LB0 1-328)
chain: MGATGDTEQPRGPGGAERGGLELGDAGAAGQPVLTNPWNIMIKHRQVQRRGRRSQMTTSFTDPAISMDLLRAVLQPSINEEIQGVFNKYMKFFQKAALNVRDNVGEEVDAEQLIQEACRSCLEQAKLLFSDGEKVIPRLAHELPGIKRGRQAEEESHRGSPIPKKRKGRPPGHVLSNDRAAAGMVWKQKSCEPIRREGPKWDPARLNESTTFVLGSRANKALGMGGTRGRIYIKHPHLFKYAADPQDKHWLAEQHHMRATGGKMAYLLIEEDIRDLAASDDYRGCLDLKLEELKSFVLPSWMVEKMRKYMETLRTENEHRAAEAPPQT
Turning to B1, the binding result in test [3] is recorded as “no binding”; in test [1], “binds”; in test [2], “no binding”.

B2: SIN3A (endogenous, mouse ESCs) (protein, UniProt Q60520 1-1274)
chain: MKRRLDDQESPVYAAQQRRIPGSTEAFSHQHRVLAPAPPVYEAVSETMQSATGIQYSVAPNYQVSAVPQSSGSHGPAIAAVHSSHHHPTAVQPHGGQVVQSHAHPAPPVAPVQGQQQFQRLKVEDALSYLDQVKLQFGSQPQVYNDFLDIMKEFKSQSIDTPGVISRVSQLFKGHPDLIMGFNTFLPPGYKIEVQTNDMVNVTTPGQVHQIPTHGIQPQPQPPPQHPSQPSSQSAPTPAQPAPQPTAAKVSKPSQLQAHTPASQQTPPLPPYASPRSPPVQPHTPVTISLGTAPSLQNNQPVEFNHAINYVNKIKNRFQGQPDIYKAFLEILHTYQKEQRNAKEAGGNYTPALTEQEVYAQVARLFKNQEDLLSEFGQFLPDANSSVLLSKTTAEKVDSVRNDHGGTVKKPQLNNKPQRPSQNGCQIRRHSGTGATPPVKKKPKLMSLKESSMADASKHGVGTESLFFDKVRKALRSAEAYENFLRCLVIFNQEVISRAELVQLVSPFLGKFPELFNWFKNFLGYKESVHLESFPKERATEGIAMEIDYASCKRLGSSYRALPKSYQQPKCTGRTPLCKEVLNDTWVSFPSWSEDSTFVSSKKTQYEEHIYRCEDERFELDVVLETNLATIRVLEAIQKKLSRLSAEEQAKFRLDNTLGGTSEVIHRKALQRIYADKAADIIDGLRKNPSIAVPIVLKRLKMKEEEWREAQRGFNKVWREQNEKYYLKSLDHQGINFKQNDTKVLRSKSLLNEIESIYDERQEQATEENAGVPVGPHLSLAYEDKQILEDAAALIIHHVKRQTGIQKEDKYKIKQIMHHFIPDLLFAQRGDLSDVEEEEEEEMDVDEATGAPKKHNGVGGSPPKSKLLFSNTAAQKLRGMDEVYNLFYVNNNWYIFMRLHQILCLRLLRICSQAERQIEEENREREWEREVLGIKRDKSDSPAIQLRLKEPMDVDVEDYYPAFLDMVRSLLDGNIDSSQYEDSLREMFTIHAYIAFTMDKLIQSIVRQLQHIVSDEVCVQVTDLYLAENNNGATGGQLNSQTSRSLLESAYQRKAEQLMSDENCFKLMFIQSQGQVQLTVELLDTEEENSDDPVEAERWSDYVERYMSSDTTSPELREHLAQKPVFLPRNLRRIRKCQRGREQQEKEGKEGNSKKTMENVESLDKLECRFKLNSYKMVYVIKSEDYMYRRTALLRAHQSHERVSKRLHQRFQAWVDKWTKEHVPREMAAETSKWLMGEGLEGLVPCTTTCDTETLHFVSINKYRVKYGTVFKAP
Turning to B2, the binding entry in test [3], in test [1] and in test [2] was “binds” each time.
